Measured values taken from patent US20140363889A1, “METHOD FOR PRODUCING MULTIPOLAR CELL” (TOAGOSEI CO., LTD., priority 2011, published 2014).
Some entries share one result that the patent states for a list of compounds.

Tested on: HeLa cell line (HeLa S3)
Assay: Multipolarity-inducing activity assay 2 (cells synchronized in G2 phase (or M phase) by nocodazole)
Assay type: cell-based
Settings: 10 μM peptide, multipolar spindles observed
Method: The same sample peptides as those used in Example 2 above were used and tested for multipolarity-inducing activity against cultured tumor cells synchronized in the G2 phase (or M phase). Details of the assay are as described below.
As the tumor cells tested, a HeLa cell line (HeLa S3) was used. The cell line was cultured under the same conditions as Example 2 and seeded at about 3×10^4 cells per well in an 8-well slide glass. Thymidine was added to the culture medium to a final concentration of 2.5 mM. Incubation was carried out at 37° C. under 5% CO2 for 18 hours. The culture medium was exchanged to remove thymidine and incubation was carried out for 6 more hours. Subsequently, nocodazole was added to a final concentration of 0.1 μg/mL and incubation was carried out for 16 hours. By such addition of nocodazole, the cells being cultured were synchronized in the G2 phase (M phase) of the cell cycle.
After the 16 hours of incubation, without exchanging the culture medium (i.e. with nocodazole being contained), one of the sample peptides was added to each well to a peptide concentration in the well of 10 μM and incubation was carried out for 4 hours. Subsequently, the culture medium was exchanged and incubation was continued for 2 more hours without nocodazole or the sample peptide.
After the 2 hours of incubation, in the same manner as Example 2, the presence of multipolarity was observed by immunofluorescence under fluorescence microscope.

| Sequence | centrosomes formed in many cells (fluorescence microscope images, FIG. 1 to 3) |
| --- | --- |
| GPHHYWYHLRLP [Sample 4] | ≥ 3 |
| GPHLGMNQRRRP [Sample 9] | ≥ 3 |
| SVSVGMKPSPRPKKRTLRKNDRKKR [Sample 11] | ≥ 3 |
